Source: article PMC11005723, “Development of Complementary Photo‐arginine/lysine to Promote Discovery of Arg/Lys hPTMs Interactomes” (Advanced Science, 2024)
The source gives many values for each of these; only a part stands here.

Test system: HEK293T nuclear lysates
Experiment: SILAC‐based pull‐down proteomics H4K5me2/H4K5 (probes 7/5)
Format: binding, human
Conditions: for F6 log2 (H4K5me2/H4K5): run F6; for E6 log2 (H4K5me2/H4K5): run E6
[1] = enriched protein NCBP1 (Q09161)
[2] = enriched protein NOP14 (P78316)
[3] = enriched protein NR2F2 (P24468)
[4] = enriched protein NUP155 (E9PF10)
[5] = enriched protein PAICS (E9PBS1)
[6] = enriched protein PARP1 (P09874)
[7] = enriched protein PPP1CA (P62136)
[8] = enriched protein PPP1CB (P62140)
[9] = enriched protein PPP2R1A (P30153)
[10] = enriched protein PRPF3 (O43395)
[11] = enriched protein PRPF19 (Q9UMS4)
[12] = enriched protein PSAT1 (Q9Y617)
[13] = enriched protein PSMG1 (O95456)
[14] = enriched protein PTCD3 (Q96EY7)
[15] = enriched protein RPL22 (K7EJT5)
[16] = enriched protein RUVBL2 (Q9Y230)
[17] = enriched protein SAMD1 (Q6SPF0)
[18] = enriched protein SEC13 (A8MXL6)
[19] = enriched protein SENP3 (Q9H4L4)
[20] = enriched protein SEPT7 (E7ES33)
[21] = enriched protein SHMT2 (H0YIZ0)
[22] = enriched protein SKIV2L2 (P42285)
[23] = enriched protein SMAD4 (K7EIU8)
[24] = enriched protein SMARCB1 (Q12824)
[25] = enriched protein SMCHD1 (A6NHR9)
[26] = enriched protein SNRPC (P09234)
[27] = enriched protein SNRPD3 (P62318)
[28] = enriched protein SNRPN (J3QLE5)
[29] = enriched protein SRSF5 (Q13243)
[30] = enriched protein THOC2 (A0A0C4DG98)
[31] = enriched protein THOC3 (Q96J01)
[32] = enriched protein THOC5 (Q13769)
[33] = enriched protein THOC6 (Q86W42)
[34] = enriched protein U2AF1 (Q01081)
[35] = enriched protein UBE2M (P61081)
[36] = enriched protein UQCRC1 (P31930)
[37] = enriched protein VDAC2 (A0A0A0MR02)
[38] = protein A0A0B4J2E5 LOC102724159
[39] = protein A0A1W2PQ90 Uncharacterized protein

probe 7: H4K5me2 peptide probe with photo‐arginine R(dz) and K(biotin) (SGRGKGGKGLGKGGK; photo-arginine R(dz) at 3; dimethyl-lysine at 5; K(biotin) at 15)
F6 log2 (H4K5me2/H4K5) (enriched protein MIF (P14174)): 0.3402
E6 log2 (H4K5me2/H4K5) [1]: 0.4502
F6 log2 (H4K5me2/H4K5) [1]: 0.2006
E6 log2 (H4K5me2/H4K5) [2]: 0.5649
F6 log2 (H4K5me2/H4K5) [2]: 1.527
E6 log2 (H4K5me2/H4K5) [3]: 0.7904
F6 log2 (H4K5me2/H4K5) [3]: 0.8722
E6 log2 (H4K5me2/H4K5) (enriched protein NSD1 (Q96L73)): 0.9421
F6 log2 (H4K5me2/H4K5) (enriched protein NSD1 (Q96L73)): -0.6852
E6 log2 (H4K5me2/H4K5) [4]: 0.7525
F6 log2 (H4K5me2/H4K5) [4]: -1.3641
E6 log2 (H4K5me2/H4K5) [5]: 0.5659
F6 log2 (H4K5me2/H4K5) [5]: 0.4981
E6 log2 (H4K5me2/H4K5) [6]: 0.5123
F6 log2 (H4K5me2/H4K5) [6]: 0.4365
E6 log2 (H4K5me2/H4K5) (enriched protein PCNA (P12004)): 0.5188
F6 log2 (H4K5me2/H4K5) (enriched protein PCNA (P12004)): 0.4082
E6 log2 (H4K5me2/H4K5) (enriched protein PGK1 (P00558)): 0.7906
F6 log2 (H4K5me2/H4K5) (enriched protein PGK1 (P00558)): 0.7824
E6 log2 (H4K5me2/H4K5) (enriched protein PHF6 (Q8IWS0)): 0.5067
F6 log2 (H4K5me2/H4K5) (enriched protein PHF6 (Q8IWS0)): 0.2654
E6 log2 (H4K5me2/H4K5) (enriched protein PPIA (P62937)): 0.6611
F6 log2 (H4K5me2/H4K5) (enriched protein PPIA (P62937)): 0.6884
E6 log2 (H4K5me2/H4K5) [7]: 0.6972
F6 log2 (H4K5me2/H4K5) [7]: 0.645
E6 log2 (H4K5me2/H4K5) [8]: 0.404
F6 log2 (H4K5me2/H4K5) [8]: -0.01575
E6 log2 (H4K5me2/H4K5) [9]: 0.5245
F6 log2 (H4K5me2/H4K5) [9]: 0.2878
E6 log2 (H4K5me2/H4K5) [10]: 1.254
F6 log2 (H4K5me2/H4K5) [10]: 0.5022
E6 log2 (H4K5me2/H4K5) [11]: 0.4929
F6 log2 (H4K5me2/H4K5) [11]: 0.5079
E6 log2 (H4K5me2/H4K5) [12]: 1.232
F6 log2 (H4K5me2/H4K5) [12]: 0.9134
E6 log2 (H4K5me2/H4K5) [13]: 0.7836
F6 log2 (H4K5me2/H4K5) [13]: 0.7673
E6 log2 (H4K5me2/H4K5) [14]: 1.143
F6 log2 (H4K5me2/H4K5) [14]: 0.4051
E6 log2 (H4K5me2/H4K5) (enriched protein RAN (P62826)): 0.4096
F6 log2 (H4K5me2/H4K5) (enriched protein RAN (P62826)): 0.4478
E6 log2 (H4K5me2/H4K5) (enriched protein RCC1 (P18754)): 0.5999
F6 log2 (H4K5me2/H4K5) (enriched protein RCC1 (P18754)): 0.6391
E6 log2 (H4K5me2/H4K5) (enriched protein RFC3 (P40938)): 0.7179
F6 log2 (H4K5me2/H4K5) (enriched protein RFC3 (P40938)): 1.486
E6 log2 (H4K5me2/H4K5) (enriched protein RNF2 (Q99496)): 0.4291
F6 log2 (H4K5me2/H4K5) (enriched protein RNF2 (Q99496)): 0.2686
E6 log2 (H4K5me2/H4K5) [15]: 0.5817
F6 log2 (H4K5me2/H4K5) [15]: 0.3313
E6 log2 (H4K5me2/H4K5) [16]: 0.5474
F6 log2 (H4K5me2/H4K5) [16]: 0.5126
E6 log2 (H4K5me2/H4K5) [17]: 0.4814
F6 log2 (H4K5me2/H4K5) [17]: 0.1855
E6 log2 (H4K5me2/H4K5) [18]: 1.006
F6 log2 (H4K5me2/H4K5) [18]: 1.562
E6 log2 (H4K5me2/H4K5) [19]: 0.52
F6 log2 (H4K5me2/H4K5) [19]: 0.2653
E6 log2 (H4K5me2/H4K5) [20]: 0.6428
F6 log2 (H4K5me2/H4K5) [20]: 0.562
E6 log2 (H4K5me2/H4K5) [21]: 0.4508
F6 log2 (H4K5me2/H4K5) [21]: 0.4286
E6 log2 (H4K5me2/H4K5) [22]: 0.502
F6 log2 (H4K5me2/H4K5) [22]: 0.1755
E6 log2 (H4K5me2/H4K5) (enriched protein SKP1 (E5RJR5)): 0.7524
F6 log2 (H4K5me2/H4K5) (enriched protein SKP1 (E5RJR5)): 0.6351
E6 log2 (H4K5me2/H4K5) [23]: 0.657
F6 log2 (H4K5me2/H4K5) [23]: 0.5993
E6 log2 (H4K5me2/H4K5) [24]: 0.4652
F6 log2 (H4K5me2/H4K5) [24]: 0.3353
E6 log2 (H4K5me2/H4K5) [25]: 0.5636
F6 log2 (H4K5me2/H4K5) [25]: -0.3447
E6 log2 (H4K5me2/H4K5) (enriched protein SMU1 (Q2TAY7)): 0.5512
F6 log2 (H4K5me2/H4K5) (enriched protein SMU1 (Q2TAY7)): 0.7298
E6 log2 (H4K5me2/H4K5) [26]: 0.7348
F6 log2 (H4K5me2/H4K5) [26]: 0.8143
E6 log2 (H4K5me2/H4K5) [27]: 0.8387
F6 log2 (H4K5me2/H4K5) [27]: 0.9268
E6 log2 (H4K5me2/H4K5) [28]: 0.8612
F6 log2 (H4K5me2/H4K5) [28]: 0.7692
E6 log2 (H4K5me2/H4K5) [29]: 0.4132
F6 log2 (H4K5me2/H4K5) [29]: -0.05398
E6 log2 (H4K5me2/H4K5) (enriched protein ST13 (H7C3I1)): 0.4848
F6 log2 (H4K5me2/H4K5) (enriched protein ST13 (H7C3I1)): 0.1307
E6 log2 (H4K5me2/H4K5) (enriched protein TARS (P26639)): 0.4285
F6 log2 (H4K5me2/H4K5) (enriched protein TARS (P26639)): 0.5358
E6 log2 (H4K5me2/H4K5) [30]: 0.5009
F6 log2 (H4K5me2/H4K5) [30]: 0.2124
E6 log2 (H4K5me2/H4K5) [31]: 0.4067
F6 log2 (H4K5me2/H4K5) [31]: 0.03014
E6 log2 (H4K5me2/H4K5) [32]: 0.4347
F6 log2 (H4K5me2/H4K5) [32]: 0.1777
E6 log2 (H4K5me2/H4K5) [33]: 0.4714
F6 log2 (H4K5me2/H4K5) [33]: 0.5437
E6 log2 (H4K5me2/H4K5) (enriched protein TKT (P29401)): 0.419
F6 log2 (H4K5me2/H4K5) (enriched protein TKT (P29401)): 0.3626
E6 log2 (H4K5me2/H4K5) [34]: 0.4021
F6 log2 (H4K5me2/H4K5) [34]: 0.4159
E6 log2 (H4K5me2/H4K5) [35]: 0.7119
F6 log2 (H4K5me2/H4K5) [35]: 0.504
E6 log2 (H4K5me2/H4K5) [36]: 0.9405
F6 log2 (H4K5me2/H4K5) [36]: 0.8645
E6 log2 (H4K5me2/H4K5) [37]: 0.5488
F6 log2 (H4K5me2/H4K5) [37]: 0.2845
E6 log2 (H4K5me2/H4K5) (enriched protein VRK1 (Q99986)): 0.5647
F6 log2 (H4K5me2/H4K5) (enriched protein VRK1 (Q99986)): 0.572
E6 log2 (H4K5me2/H4K5) (protein A0A0B4J1Z1 SRSF7): 0.1976
F6 log2 (H4K5me2/H4K5) (protein A0A0B4J1Z1 SRSF7): -0.0234
E6 log2 (H4K5me2/H4K5) [38]: 0.3043
F6 log2 (H4K5me2/H4K5) [38]: 0.2673
E6 log2 (H4K5me2/H4K5) [39]: 0.3481
F6 log2 (H4K5me2/H4K5) [39]: 0.4787
